Reference: the supplement of paper PMC12889115
The other results are listed elsewhere or left out. Values are raw readings; no control value is given beside them.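 First-pass screen: polymyxin B was added at a level that permeabilizes the Salmonella outer membrane while sparing the inner membrane. DMSO wells, with and without polymyxin B, defined maximum growth. Because plates differed from one another, each plate's data were ranked separately and the compounds with the lowest OD600 were carried forward as hits.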

Test system: Salmonella enterica serovar Typhimurium SL1344
Assay: bacterial growth OD600 after 18 h with compound and polymyxin B; higher = more bacterial growth (less inhibition)
Settings: 50 µM, Mueller-Hinton broth

| Structure (SMILES) | bacterial growth OD600 (polymyxin B 1 µg/mL) | bacterial growth OD600 (polymyxin B 0.75 µg/mL) |
| --- | --- | --- |
| CC(C)c1ccc(NC2CCCN(CC(C)(C)CO)C2)cc1 (configuration not stated) | 1.06 | – |
| Cc1ccc(CN2CCC(CN(C)Cc3cc(O)c4ccccc4n3)CC2)o1 | 0.82 | – |
| CCC(C)CN1CCC(N2CCC(C(=O)NCc3cccnc3)CC2)CC1 (configuration not stated) | 0.937 | – |
| CCOc1ccc2nc(N3CCC(NCCc4ccccn4)CC3)nc(C)c2c1 | – | 0.012 |
| COCC1CCCN(C(=O)c2cc(COc3ccc(F)cc3F)on2)C1 (configuration not stated) | 0.922 | – |
| CC(=O)c1ccc(N2CCC(C3CCN(Cc4cccnc4)CC3)C2)nc1 (configuration not stated) | – | 0.718 |
| Cc1cccc(C(=O)NCc2nc(-c3ccccc3NC(=O)CC3CCCC3)oc2C)n1 | – | 0.015 |
| COCCN(CC1CCN(Cc2ccccc2OC)CC1)C(=O)c1n[nH]c2c1CCC2 | 1.05 | – |
| CN(C)c1ncccc1CNS(=O)(=O)N1CCOCC1 | 0.944 | – |
| O=C1N(Cc2cccnc2)CCCC12CCN(Cc1cccc(F)c1F)C2 (configuration not stated) | 0.928 | – |
| O=C(Nc1cnn(-c2ccc(C(=O)N3CCN(c4nc5ccccc5s4)CC3)cc2)c1)c1ccoc1 | – | 0.947 |
| Cc1cccc(CNc2ccc(C(=O)NCCC3CCCCN3C)cn2)n1 (configuration not stated) | – | 0.825 |
| COc1cccc(CCC2CCCN(C(=O)c3snnc3C)C2)c1 (configuration not stated) | – | 0.723 |
| Cc1cnc(CNC(=O)c2cc(CN3CCC(Cc4ccccc4)CC3)on2)cn1 | 0.964 | – |
| CCn1ccnc1CN(C)Cc1nc(-c2ccc(C(=O)OC)cc2)no1 | 0.807 | – |
| C[C@@H]1CN(C(=O)c2nc3sccn3c2CN2CCC[C@H]2CO)C[C@H](C)O1 | 0.913 | – |

| Structure (SMILES) | bacterial growth OD600 (polymyxin B 1 µg/mL) | bacterial growth OD600 (polymyxin B 0.75 µg/mL) |
| --- | --- | --- |
| Cc1ccc(CN2C[C@H](O)[C@@H](N3CCOCC3)C2)cc1 | 0.796 | – |
| O=C(C1=CCCC1)N1CCC2(CCCN(Cc3ccc(F)cc3)C2)C1 (configuration not stated) | 0.905 | – |
| C=CCNC(=O)C1CCCN1c1nc(C)c2cc(OCC)ccc2n1 (configuration not stated) | – | 0.778 |
| CN(C)c1ncc2c(n1)CCCC2NCc1nc(-c2ccccc2)cs1 (configuration not stated) | – | 0.725 |
| CCOC(=O)C1(Cc2ccc(F)cc2)CCCN(C(=O)c2cc(F)ccc2F)C1 (configuration not stated) | 0.739 | – |
| CCn1cc(CN2CCc3[nH]nc(-c4ccccc4F)c3C2)c(C)n1 | – | 0.826 |
| CN(CC1CCN(CCc2cccc(F)c2)CC1)C(=O)CCN1CCCO1 | 0.966 | – |
| CCCCNC(=O)c1cn(C2CCCCC2)cc(C(=O)NCCc2ccncc2)c1=O | – | 0.831 |
| Fc1ccc(Cc2noc(-c3ccc(NCC4COCCO4)nc3)n2)cc1 (configuration not stated) | – | 0.005 |
| C=CCO[C@H]1[C@H](NC(=O)COC)c2ccccc2C12CCN(Cc1cccc(OCCO)c1)CC2 | – | 1.07 |
| COc1ccc(CN2CCN(Cc3cc(C(C)C)[nH]n3)CC2CCO)cc1C (configuration not stated) | 0.983 | – |
| Cc1cccc(-c2cccc(NC(=O)C3CCCN3Cc3nccn3C)c2)c1 (configuration not stated) | – | 0.438 |
| CC(C)c1nc(CNC(=O)c2ccc(NC(C)C3CC3)nc2)no1 (configuration not stated) | 1.18 | – |
| CCc1csc(CNC(=O)c2ccc(N3CCCC(O)C3)nc2)n1 (configuration not stated) | 0.852 | – |
| CC(C)c1ccc(CN2CCCC3(CCN(C(=O)c4cccnc4)C3)C2=O)cc1 (configuration not stated) | 1.2 | – |
| CC(C)c1ccc(CN2CCCC3(CCN(C(=O)c4ccccn4)C3)C2=O)cc1 (configuration not stated) | 0.968 | – |

Rewritten with tabs: entries from further up
Structure (SMILES)	bacterial growth OD600 (polymyxin B 1 µg/mL)	bacterial growth OD600 (polymyxin B 0.75 µg/mL)
C=CCO[C@H]1[C@H](NC(=O)COC)c2ccccc2C12CCN(Cc1cccc(OCCO)c1)CC2	–	1.07
COc1ccc(CN2CCN(Cc3cc(C(C)C)[nH]n3)CC2CCO)cc1C (configuration not stated)	0.983	–
